Laboratory results: patent US9999650B2, “Peptide and peptidomimetic inhibitors” (Ra Pharmaceuticals, Inc., priority 2012, dated 2018)
Part of at least one peptide drawing is inferred or uncertain, most often the ends. At least one compound was matched to its structure with a doubt left. Numbered stars: 1 amine (or outer) side, 2 acyl side, 3 side chain; on linkers, the order of the positions; unused ones are H or OH. Bridge positions count the residues as written; N and C are the ends. Square brackets hold non-standard residues; d marks the D form. Peptide text beside a SMILES is read from it. X5 = N=C(N)c1cccc(CC(N[*:1])C(=O)[*:2])c1; Phe(3-Cl) = N[C@@H](Cc1cccc(Cl)c1)C(=O)O; mXylylene = c1cc(C[*:1])cc(C[*:2])c1; oXylylene = c1ccc(C[*:2])c(C[*:1])c1; Trx = NC[C@H]1CC[C@H](C(=O)O)CC1; dPhg = N[C@@H](C(=O)O)c1ccccc1; Chg = N[C@H](C(=O)O)C1CCCCC1; Phg = N[C@H](C(=O)O)c1ccccc1; Tle = CC(C)(C)[C@H](N)C(=O)O; Aze = O=C(O)[C@@H]1CCN1; Thp = NC1(C(=O)O)CCOCC1; Mpa = O=C(O)CCS

By UniProt entry, the sequences of proteins in these tests, tags left out. Residues count along the entry.
UniProt P03952, 20-390 limits assumed: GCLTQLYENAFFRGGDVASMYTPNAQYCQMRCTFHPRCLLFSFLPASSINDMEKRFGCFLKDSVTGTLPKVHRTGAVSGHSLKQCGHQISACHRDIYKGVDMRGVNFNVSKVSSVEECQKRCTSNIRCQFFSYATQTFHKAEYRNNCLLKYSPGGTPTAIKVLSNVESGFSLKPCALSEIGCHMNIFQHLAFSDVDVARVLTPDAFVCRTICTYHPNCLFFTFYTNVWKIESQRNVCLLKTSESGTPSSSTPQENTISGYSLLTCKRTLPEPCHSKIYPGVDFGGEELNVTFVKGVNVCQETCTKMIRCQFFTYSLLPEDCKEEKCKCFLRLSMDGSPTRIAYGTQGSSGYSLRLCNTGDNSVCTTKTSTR
UniProt P03952, 391-638 limits assumed: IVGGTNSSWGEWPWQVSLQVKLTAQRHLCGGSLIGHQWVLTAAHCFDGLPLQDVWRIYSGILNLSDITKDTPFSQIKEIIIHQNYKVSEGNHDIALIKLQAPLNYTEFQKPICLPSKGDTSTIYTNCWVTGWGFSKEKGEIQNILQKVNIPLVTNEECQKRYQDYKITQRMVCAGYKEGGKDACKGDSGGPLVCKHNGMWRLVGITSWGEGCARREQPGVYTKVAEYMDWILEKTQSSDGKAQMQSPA

These molecules were tested against T1, human plasma kallikrein (Homo sapiens, UniProt P03952) (assay: Enzyme inhibition assay (fluorogenic substrate H-Pro-Phe-Arg-AMC)). Conditions: Kallikrein inhibitory activity; 1 nM activated human kallikrein, 500 μM H-Pro-Phe-Arg-AMC, 1 hour room temperature.
T1 construct: purchased Enzyme Research Laboratories HPKa 1303
Assay type: biochemical
Experimental: Activated human plasma kallikrein (Enzyme Research Laboratories, HPKa 1303) was reacted with H-Pro-Phe-Arg-7-amido-4-methylcoumarin (H-Pro-Pre-Arg-AMC) (a fluorogenic substrate for plasma as well as pancreatic and urinary kallikreins; Bachem I-1295) and candidate inhibitory peptides to determine the IC50 of the inhibitor.
Ten 8-fold serial dilutions of peptides (10 mM DMSO stocks) were performed in DMSO and then added to TCNB (50 mM Tris-HCl pH 7.2, 150 mM NaCl, 10 mM CaCl2, 0.05% Brij-35) and sonicated. 50 μL of the peptide dilutions were added to microtitre plates (96 well, black non-binding surface, Corning, 3650) and incubated for 5 minutes at room temperature with 4 nM activated human kallikrein (final concentration after addition of fluorogenic substrate: 1 nM). The samples were then incubated for 1 hour at room temperature with 2 mM H-Pro-Phe-Arg-AMC (final concentration 500 μM). Relative Fluorescence Units (RFU) were measured at excitation/emission 360 nm/460 nm by a SpectraMax M3.

Row | IC50 [µM] | Compound
1 | > 10 | CC(C)(C)[C@H](NC(=O)[C@H](CCCNC(=N)N)NC(=O)[C@@H]1CSCc2cccc(c2)CSCCC(=O)NC[C@H]2CC[C@@H](CC2)C(=O)N[C@H](c2ccccc2)C(=O)N1)C(N)=O [Compound R2081, [mXylyl(1,5)](des-NH2)C-Tranexamic-(D)Phg-CR-Tbg-NH2] ([Mpa][Trx][dPhg]CR[Tle]-NH2; linker 1-4 via mXylylene)
2 | > 8.9 | CC(C)(C)[C@H](NC(=O)[C@H](CCCNC(=N)N)NC(=O)[C@@H]1CSCc2ccccc2CSCCC(=O)N[C@@H](c2ccccc2)C(=O)N1)C(N)=O [Compound R2083, [oXylyl(1,5)](des-NH2)C-Phg-CR-Tbg-NH2] ([Mpa][Phg]CR[Tle]-NH2; linker 1-3 via oXylylene)
3 | > 8.23 | CC(C)[C@H](NC(=O)C(Cc1cccc(C(=N)N)c1)NC(=O)[C@@H]1CSCc2cccc(c2)CSCCC(=O)NC2(CCOCC2)C(=O)N[C@@H](C)C(=O)N[C@@H](C2CCCCC2)C(=O)N1)C(N)=O (some centres unmarked) [Compound R2179, [mXylyl(1,5)](des-NH2)C-AcPyr-A-Chg-C-(3-BZA)-V-NH2] ([Mpa][Thp]A[Chg]C[X5]V-NH2; linker 1-5 via mXylylene)
4 | 0.127 | CC(C)(C)[C@H](NC(=O)[C@H](CCCNC(=N)N)NC(=O)[C@@H]1CSCc2cccc(c2)CSCCC(=O)N2CC[C@H]2C(=O)N[C@@H](C2CCCCC2)C(=O)N1)C(N)=O [Compound R2194, [mXylyl(1,4)](des-NH2)C-Aze-Chg-CR-Tbg-NH2] ([Mpa][Aze][Chg]CR[Tle]-NH2; linker 1-4 via mXylylene)
5 | > 75 | CC(C)(C)[C@H](NC(=O)[C@H](Cc1cccc(Cl)c1)NC(=O)[C@@H]1CSCc2cccc(c2)CSCCC(=O)N2CCC[C@H]2C(=O)N[C@H](c2ccccc2)C(=O)N1)C(N)=O [Compound R2208, P-(D-Phg)-C-3-Cl-Phe-Tbg-NH2] ([Mpa]P[dPhg]C[Phe(3-Cl)][Tle]-NH2; linker 1-4 via mXylylene (inferred); C-terminus assumed)
